Laboratory results from the supplement of paper PMC10735217.
Some of the results follow. Repeats in this data set agree poorly, so a single value says little.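 The human kidney-derived cells carry a stably integrated construct of eight TEAD-binding elements driving luciferase, read by luminescence in a drug-repurposing library screen. A compound counts as a hit when its signal is more than five robust Z scores above the plate mean.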

Tested on: HEK293A TEAD-LUC reporter
Test: TEAD-luciferase reporter activity (YAP activation), robust Z score vs plate; higher = stronger YAP/TEAD activation
Conditions: 24 h

Compound | TEAD-luciferase reporter activity (compound concentration: 200 nM) | TEAD-luciferase reporter activity (compound concentration: 2 uM) | TEAD-luciferase reporter activity (compound concentration: 10 uM)
Nc1nc(N)c2c(OCC3CCN(Cc4c(Cl)cccc4Cl)CC3)cccc2n1 | inactive: -1.06 | inactive: -1.79 | inactive: 0.5
Cc1nc(NS(=O)(=O)c2ccc(N)cc2)nc(C)c1Br | inactive: -0.777 | inactive: 0.282 | inactive: -1.02
CC1Cc2ccccc2N1NC(=O)c1ccc(Cl)c(S(N)(=O)=O)c1 (centres undefined) | inactive: -1.03 | inactive: -0.527 | inactive: -0.172
Oc1ccc(C2c3ccc(O)cc3OCC2c2cccc(O)c2)cc1 (centres undefined) | inactive: -1.3 | inactive: 0.976 | inactive: -0.221
COC(=O)Nc1nc2ccc(C(=O)C3CC3)cc2[nH]1 [Ciclobendazole] | inactive: 1.65 | inactive: -1.19 | inactive: 0.32
CCCNC(C)(C)C(=O)Nc1ccccc1C [Quatacaine] | inactive: -2.44 | – | inactive: -0.26
C=CCN1CCCC1CNC(=O)c1cc(S(N)(=O)=O)cc(OC)c1OC (centres undefined) | inactive: -0.144 | inactive: -0.964 | inactive: -1.36
Cc1ccc(CC2SC(=O)NC2=O)cc1 (centres undefined) | inactive: -1.1 | inactive: 0.622 | inactive: -0.299
CCOC(=O)Nc1ccc2c(c1)N(C(=O)CN(C)C)c1ccccc1CC2 [tiracizine] | inactive: -0.746 | inactive: -0.278 | inactive: 0.702
CC(=O)NC1CCN(c2ccc3ncc(-c4cccc(C(F)(F)F)c4)n3n2)CC1 | inactive: -2.27 | – | inactive: -0.213
CC(C)(CO)CCCCCCC(C)(C)CO [Gemcadiol] | inactive: -0.933 | inactive: -1.34 | inactive: 0.344
NC(=O)N(O)Cc1cccc(COC(c2cccnc2)c2ccc3ccccc3c2)c1 (centres undefined) | inactive: -0.0757 | inactive: -0.713 | inactive: 0.613
Cc1ccc2c(Br)cc(Br)c(OC(=O)c3ccc4ccccc4c3)c2n1 | inactive: -0.34 | inactive: 1.73 | inactive: -0.515
Cc1nccn1Cc1csc2ccc3ccccc3c2c1=O | inactive: -1.54 | inactive: -1.8 | inactive: 2.82
Cc1cn[nH]c1 [fomepizole] | inactive: -0.679 | inactive: -0.646 | inactive: 3.75
C[C@@]12CC(N)[C@@H]1CN(c1nc3c(cc1F)c(=O)c(C(=O)O)cn3C1CC1)C2 (some centres undefined) | inactive: 3.19 | inactive: -0.0986 | inactive: -0.637
C1CCCN(C2C3CC4CC(C3)CC2C4)CC1 (centres undefined) [Hemantane] | inactive: -0.883 | inactive: -0.594 | inactive: -0.122
CCCC(N)(CCC)CCC | inactive: -1.4 | inactive: -1.6 | inactive: 2.24
COc1ccc(NC2=C(C)C(=O)CC2)cc1OC1CC2CCC1C2 (centres undefined) | inactive: -1.71 | inactive: -0.256 | inactive: 2.19

Laid out differently: results already given.
Compound	TEAD-luciferase reporter activity (compound concentration: 200 nM)	TEAD-luciferase reporter activity (compound concentration: 2 uM)	TEAD-luciferase reporter activity (compound concentration: 10 uM)
CCCNC(C)(C)C(=O)Nc1ccccc1C [Quatacaine]	inactive: -2.44	–	inactive: -0.26
C=CCN1CCCC1CNC(=O)c1cc(S(N)(=O)=O)cc(OC)c1OC (centres undefined)	inactive: -0.144	inactive: -0.964	inactive: -1.36
Cc1ccc(CC2SC(=O)NC2=O)cc1 (centres undefined)	inactive: -1.1	inactive: 0.622	inactive: -0.299
CC(C)(CO)CCCCCCC(C)(C)CO [Gemcadiol]	inactive: -0.933	inactive: -1.34	inactive: 0.344
NC(=O)N(O)Cc1cccc(COC(c2cccnc2)c2ccc3ccccc3c2)c1 (centres undefined)	inactive: -0.0757	inactive: -0.713	inactive: 0.613
C[C@@]12CC(N)[C@@H]1CN(c1nc3c(cc1F)c(=O)c(C(=O)O)cn3C1CC1)C2 (some centres undefined)	inactive: 3.19	inactive: -0.0986	inactive: -0.637
CCCC(N)(CCC)CCC	inactive: -1.4	inactive: -1.6	inactive: 2.24

Following part:

Compound | TEAD-luciferase reporter activity (compound concentration: 200 nM) | TEAD-luciferase reporter activity (compound concentration: 2 uM) | TEAD-luciferase reporter activity (compound concentration: 10 uM)
NC(=S)NS(=O)(=O)c1ccc(N)cc1 | inactive: -0.102 | inactive: 2.25 | inactive: -0.369
C[C@@H]1C[C@H]2[C@@H]3C[C@H](F)C4=CC(=O)C=CC4(C)[C@@]3(F)[C@@H](O)CC2(C)[C@H]1C(=O)CO (some centres undefined) | inactive: 4.16 | inactive: -0.169 | inactive: -0.0701
Cc1nc(-c2ccc(Cl)cc2)sc1C(=O)N[C@H]1CCCN(c2cccc(C(=O)O)c2)C1 | inactive: 0.0635 | inactive: 0.0719 | inactive: -0.805
Cc1ccc(S(=O)(=O)NC(=O)NC(C)(C)Cc2ccccc2)cc1 [analog of TOSIFEN] | inactive: -2.16 | inactive: -0.138 | inactive: -0.226
COc1c(Cc2c[nH]c3ccccc23)[nH]c(=O)c(CC(C)C)[n+]1[O-] | active: 5.66 | inactive: 0.0989 | inactive: 0.688
CC(=O)Oc1cccc2c1C(=O)c1c(OC(C)=O)cc(C(=O)O)cc1C2=O [diacerein (capsule), TWi Pharmaceuticals] | inactive: -2.48 | – | inactive: 1.51
CC(=O)Oc1cccc2c1C(=O)c1c(OC(C)=O)cc(C(=O)O)cc1C2=O [diacerein (capsule)] | – | inactive: -1.38 | –
C[N@+]12CCCC[C@@H]1CCC(=C(c1cccs1)c1cccs1)C2 [tiquizium bromide] | inactive: 0.154 | inactive: -1.35 | inactive: -0.906
Cc1c(NC(=O)C(C)N(C)C)c(=O)n(-c2ccccc2)n1C (centres undefined) | inactive: 0.588 | inactive: -1.85 | inactive: 1.49
C=C1C[C@H]2[C@@H]3C=C(C)C4=CC(=O)CC[C@]4(C)[C@H]3CC[C@]2(C)[C@@]1(OC(C)=O)C(C)=O [Melengestrol acetate] | inactive: 1.35 | inactive: -0.727 | inactive: 1.19
CN[C@@H](C)C(=O)N[C@H]1CN(C(=O)CC(C)C)CC[C@H]2CC[C@@H](C(=O)NC(c3ccccc3)c3ccccc3)N2C1=O | inactive: 0.878 | inactive: 1.53 | inactive: 2.02
O=C(O)CCCC(=O)N1Cc2ccccc2CC2(CCCCN2CCc2ccccc2)C1 (centres undefined) | inactive: -3.48 | – | inactive: 2.3
CCCCN(CCCC)CC(O)c1cc(-c2ccc(C(F)(F)F)cc2)nc(-c2ccc(C(F)(F)F)cc2)c1 (centres undefined) | inactive: -0.583 | inactive: -2.04 | inactive: 0.298
C#C[C@H]1CCC2C3CCC4=CC(=O)CC[C@]4(C)C3CC[C@@]21C (some centres undefined) | inactive: -1.2 | inactive: -0.73 | inactive: -0.784
Cc1cccc(Cl)c1NC(=O)Nc1ccncc1 | inactive: -0.918 | inactive: 0.324 | inactive: 3.13
CC(=O)NCC(=O)N1Cc2ccccc2CC2(CCCN2C)C1 (centres undefined) | inactive: -0.54 | – | inactive: 0.825
CC(C)(F)C[C@H](N[C@@H](c1ccc(-c2ccc(S(C)(=O)=O)cc2)cc1)C(F)(F)F)C(=O)NC1(C#N)CC1 [odanacatib] | inactive: 0.0582 | inactive: -2.66 | inactive: 0.519
CCCCCCCCN1CCc2c(C)c(CC(=O)O)c(C)c(NC(=O)C(C)(C)C)c21 | inactive: -0.897 | inactive: -0.963 | inactive: -0.0468
